From PubChem BioAssay AID242 (DTP/NCI, 2004)
The list does not hold the whole screen: it is rich in T/C values a quarter to a half above the control, in often repeated tests (any T/C) and in doses without a T/C. Further doses and runs are listed elsewhere. T/C: endpoint of the treated group in % of that of the vehicle group. Some entries give survivors of the animals treated and no T/C: the source files T/C as zero there, which appears to mark a toxic dose or a test without result, not a measured value. Some survivor counts are full or nearly so, which does not show that the dose was tolerated: survival well below the control is almost never listed, so the zero probably covers shortened survival too. Counts of survivors are from the toxicity check (mostly the fifth day) where no day follows; animals may have died later. Schedules are NCI's codes, read here as Q, the interval in days (D) or hours (H), X, the number of doses. Some entries hold several experiments; their values stand side by side, smallest first. Where survival is the endpoint, the PubChem record calls one and a half times the control and up active, and a quarter to a half above the control has no call in these data; cut-offs in other NCI protocols can differ. Some T/C values are followed by the survivors on the day toxicity was checked, most often the fifth; where none is given, no animal had died by that day.

Tested on: BDF1 mice, Lymphoma 8 ip, survival T/C
Experiment: NCI In Vivo Anticancer Drug Screen. Data for tumor model Lymphoma 8 (intraperitoneal) in B6D2F1 (BDF1) mice
Details: higher T/C = longer survival
Description: The antitumor activity of compounds was measured in mice bearing transplantable tumors. Survival or tumor size were measured and the results are expressed as the measurement made in the treated group (T) divided by the measurement made in the vehicle treated control group (C). The tumor model used in this assay is Lymphoma 8 (intraperitoneal) in B6D2F1 (BDF1) mice

[1] = T/C endpoint: survival time, mean or median, dose: 2.0 mg/kg/injection, schedule: Q01DX010 (ip), vehicle: saline
[2] = T/C endpoint: survival time, mean or median, dose: 20.0 mg/kg/injection, schedule: Q01DX010 (ip), vehicle: saline
[3] = T/C endpoint: survival time, mean or median, dose: 160.0 mg/kg/injection, schedule: Q01DX010 (ip), vehicle: saline
[4] = T/C endpoint: survival time, mean or median, dose: 10.0 mg/kg/injection, schedule: Q01DX010 (ip), vehicle: saline
[5] = T/C endpoint: survival time, mean or median, dose: 40.0 mg/kg/injection, schedule: Q01DX010 (ip), vehicle: saline
[6] = T/C endpoint: survival time, mean or median, dose: 2.5 mg/kg/injection, schedule: Q01DX010 (ip), vehicle: saline
[7] = T/C endpoint: survival time, mean or median, dose: 5.0 mg/kg/injection, schedule: Q01DX010 (ip), vehicle: saline
[8] = T/C endpoint: survival time, mean or median, dose: 6.0 mg/kg/injection, schedule: Q01DX015 (ip), vehicle: saline
[9] = T/C endpoint: survival time, mean or median, dose: 500.0 mg/kg/injection, schedule: Q01DX015 (ip), vehicle: carboxymethylcellulose (CMC)
[10] = T/C endpoint: survival time, mean or median, dose: 62.5 mg/kg/injection, schedule: Q01DX010 (ip), vehicle: saline
[11] = T/C endpoint: survival time, mean or median, dose: 50.0 mg/kg/injection, schedule: Q01DX015 (ip), vehicle: carboxymethylcellulose (CMC)
[12] = T/C endpoint: survival time, mean or median, dose: 200.0 mg/kg/injection, schedule: Q01DX015 (ip), vehicle: carboxymethylcellulose (CMC)

CCN(CC)c1ccc2cc3ccc(=[N+](CC)CC)cc-3oc2c1
survivor count [1]: 6 of 6
survivor count (T/C endpoint: survival time, mean or median, dose: 4.0 mg/kg/injection, schedule: Q01DX010 (ip), vehicle: saline): 6 of 6
survivor count (T/C endpoint: survival time, mean or median, dose: 8.0 mg/kg/injection, schedule: Q01DX010 (ip), vehicle: saline): 4 of 6

COc1cc(-c2ccc(Nc3ccccc3C(=O)O)c(OC)c2)ccc1Nc1ccccc1C(=O)O
survivor count (T/C endpoint: survival time, mean or median, dose: 300.0 mg/kg/injection, schedule: Q01DX015 (ip), vehicle: carboxymethylcellulose (CMC)): 5 of 10
survivor count (T/C endpoint: survival time, mean or median, dose: 400.0 mg/kg/injection, schedule: Q01DX015 (ip), vehicle: carboxymethylcellulose (CMC)): 3 of 10

OCC1OC(n2cnc3c(=S)nc[nH]c32)C(O)C1O (stereo not given)
T/C [2]: 125 % of control
T/C [3]: 130 % of control

O=c1[nH]cc(F)c(=O)[nH]1
T/C [4]: 132 and 141 % of control
survivor count [5]: 6 of 6

N#[N+]c1cnc([O-])[nH]c1=O
T/C [6]: 129 % of control
T/C [7]: 133 % of control
T/C [4]: 137 % of control
survivor count [2]: 0 of 6

Nc1nc2n[nH]nc2c(=O)[nH]1
survivor count (T/C endpoint: survival time, mean or median, dose: 200.0 mg/kg/injection, schedule: Q01DX010 (ip), vehicle: alkali diluted with saline): 0 of 6
survivor count (T/C endpoint: survival time, mean or median, dose: 400.0 mg/kg/injection, schedule: Q01DX010 (ip), vehicle: alkali diluted with saline): 0 of 6

O=NN(CCCl)C(=O)NCCCl
T/C (T/C endpoint: survival time, mean or median, dose: 4.0 mg/kg/injection, schedule: Q01DX015 (ip), vehicle: saline): 141 % of control
T/C [8]: 149 % of control

CC(=O)N(C)C
survivor count (T/C endpoint: survival time, mean or median, dose: 250.0 mg/kg/injection, schedule: Q01DX010 (ip), vehicle: saline): 6 of 6

NC(Cc1c[nH]c2ccc(N(CCCl)CCCl)cc12)C(=O)O (stereo not given)
T/C [1]: 125 % of control

NC(=O)/C=C/NC(=O)/C=N\O
survivor count (T/C endpoint: survival time, mean or median, dose: 100.0 mg/kg/injection, schedule: Q01DX008 (ip), vehicle: saline): 6 of 6

CCn1cnc2c(=S)nc[nH]c21
survivor count (T/C endpoint: survival time, mean or median, dose: 125.0 mg/kg/injection, schedule: Q01DX010 (ip), vehicle: saline): 6 of 6

CN(N=O)C(N)=O
T/C [4]: 128 % of control
survivor count [5]: 6 of 6

COc1ccc(CSc2ncnc3nc[nH]c23)cc1
survivor count [9]: 10 of 10

NC(C/[N+]([O-])=N/O)C(=O)O (stereo not given)
T/C (T/C endpoint: median survival time, dose: 50.0 mg/kg/injection, schedule: Q01DX009 (ip), vehicle: saline): 126 % of control [9 of 10 alive]
survivor count (T/C endpoint: median survival time, dose: 100.0 mg/kg/injection, schedule: Q01DX009 (ip), vehicle: saline): 9 of 10
survivor count (T/C endpoint: median survival time, dose: 200.0 mg/kg/injection, schedule: Q01DX009 (ip), vehicle: saline): 9 of 10

Cc1cc(N(CCCl)CCCl)ccc1N=Nc1ccccc1C(=O)O
T/C [2]: 139 % of control
survivor count [5]: 6 of 6

OCC1OC(n2cnc3c(Cl)ncnc32)C(O)C1O (stereo not given)
survivor count [10]: 6 of 6

Nc1nc(=S)c2[nH]cnc2[nH]1
T/C (T/C endpoint: survival time, mean or median, dose: 2.5 mg/kg/injection, schedule: Q01DX010 (ip), vehicle: other): 135 % of control

C[C@@H]1C[C@H]2CC[C@H](O2)[C@H](C)C(=O)O[C@@H](C)C[C@@H]2CC[C@@H](O2)[C@@H](C)C(=O)O[C@H](C)C[C@H]2CC[C@H](O2)[C@H](C)C(=O)O[C@@H](C)C[C@@H]2CC[C@@H](O2)[C@@H](C)C(=O)O1
survivor count (T/C endpoint: survival time, mean or median, dose: 180.0 mg/kg/injection, schedule: Q01DX015 (ip), vehicle: other): 10 of 10

O=C(O)CCCc1ccc(N(CCCl)CCCl)cc1
T/C (T/C endpoint: survival time, mean or median, dose: 12.5 mg/kg/injection, schedule: Q01DX010 (ip), vehicle: saline): 129 % of control
survivor count (T/C endpoint: survival time, mean or median, dose: 25.0 mg/kg/injection, schedule: Q01DX010 (ip), vehicle: saline): 5 of 6 and 6 of 6

Nc1nc(F)nc2c1ncn2C1OC(CO)C(O)C1O (stereo not given)
survivor count (T/C endpoint: survival time, mean or median, dose: 1.5 mg/kg/injection, schedule: Q01DX015 (ip), vehicle: saline): 10 of 10
survivor count (T/C endpoint: survival time, mean or median, dose: 3.0 mg/kg/injection, schedule: Q01DX015 (ip), vehicle: saline): 10 of 10
survivor count [8]: 10 of 10

Nc1nc(SCc2ccccn2)c2[nH]cnc2n1
survivor count [11]: 10 of 10

CN(C)C(=S)N=Nc1c(O)[nH]c2ccccc12
T/C [11]: 131 % of control
survivor count [12]: 10 of 10

COc1cc(-c2ccc(Nc3ccccc3C(=O)O)c(OC)c2)ccc1N
survivor count [3]: 4 of 7 and 7 of 7

COc1ccccc1CNCCO
survivor count (T/C endpoint: survival time, mean or median, dose: 400.0 mg/kg/injection, schedule: Q01DX010 (ip), vehicle: saline): 0 of 6

CC(=O)NC1=C(N2CC2)C(=O)C(NC(C)=O)=C(N2CC2)C1=O
survivor count (T/C endpoint: survival time, mean or median, dose: 2.0 mg/kg/injection, schedule: Q01DX015 (ip), vehicle: carboxymethylcellulose (CMC)): 10 of 10
survivor count (T/C endpoint: survival time, mean or median, dose: 4.0 mg/kg/injection, schedule: Q01DX015 (ip), vehicle: carboxymethylcellulose (CMC)): 10 of 10

Nc1c(Br)cc2c(c1Br)Cc1cc([N+](=O)[O-])ccc1-2
survivor count (T/C endpoint: survival time, mean or median, dose: 250.0 mg/kg/injection, schedule: Q01DX015 (ip), vehicle: carboxymethylcellulose (CMC)): 10 of 10
survivor count [9]: 10 of 10

COc1cc([C@@H]2c3cc4c(cc3[C@H](O)[C@H]3COC(=O)[C@@H]23)OCO4)cc(OC)c1OC
T/C (T/C endpoint: survival time, mean or median, dose: 40.0 mg/kg/injection, schedule: Q01DX015 (ip), vehicle: carboxymethylcellulose (CMC)): 145 % of control
survivor count (T/C endpoint: survival time, mean or median, dose: 80.0 mg/kg/injection, schedule: Q01DX015 (ip), vehicle: carboxymethylcellulose (CMC)): 10 of 10

Nc1nc(SCc2ccccc2)c2[nH]cnc2n1
survivor count (T/C endpoint: survival time, mean or median, dose: 64.0 mg/kg/injection, schedule: Q01DX010 (ip), vehicle: saline): 6 of 6

CC(=O)OCC1OC(n2cnc3c(=S)nc[nH]c32)C(OC(C)=O)C1OC(C)=O (stereo not given)
survivor count [12]: 10 of 10

N=C(N)SCc1c2ccccc2c(CSC(=N)N)c2ccccc12
T/C [7]: 128 % of control
T/C [4]: 126 and 142 % of control

CN(N=O)C(=O)NC(C=O)C(O)C(O)C(O)CO (stereo not given)
survivor count (T/C endpoint: survival time, mean or median, dose: 200.0 mg/kg/injection, schedule: Q01DX008 (ip), vehicle: saline): 3 of 6

C[n+]1c2ccccc2nc2c(N)cc(N)cc21
survivor count (T/C endpoint: survival time, mean or median, dose: 27.0 mg/kg/injection, schedule: Q01DX010 (ip), vehicle: saline): 5 of 6

CS(=O)(=O)OCCCl
survivor count (T/C endpoint: survival time, mean or median, dose: 150.0 mg/kg/injection, schedule: Q01DX010 (ip), vehicle: saline): 3 of 6

CCN(CCNc1ccc(C)c2sc3cc(Cl)ccc3c(=O)c12)CC(C)O (stereo not given)
survivor count [10]: 6 of 6

N#CCSc1ncnc2nc[nH]c12
survivor count (T/C endpoint: survival time, mean or median, dose: 120.0 mg/kg/injection, schedule: Q01DX010 (ip), vehicle: saline): 6 of 6
survivor count (T/C endpoint: survival time, mean or median, dose: 240.0 mg/kg/injection, schedule: Q01DX010 (ip), vehicle: saline): 0 of 6

Oc1cc(CN(CCCl)CCCl)c(O)cc1CN(CCCl)CCCl
survivor count (T/C endpoint: survival time, mean or median, dose: 1.25 mg/kg/injection, schedule: Q01DX010 (ip), vehicle: saline): 3 of 6
T/C [6]: 125 and 128 % of control [5 of 6 alive]
